Reference: the supplement of paper PMC3334620
In all, about 33,000 sequences were measured (“E-score (-0.5 to 0.5)”: median about -0.015, highest 2% from about 0.3 on). This is one part of the list.

target: T1, Abf1 (UniProt P14164); assay: PBM E-score (8-mer binding enrichment) (E-score (-0.5 to 0.5)); higher = stronger / more preferred TF binding; settings: protein concentration: 200 nM; construct: GST-full length
T1 sequence: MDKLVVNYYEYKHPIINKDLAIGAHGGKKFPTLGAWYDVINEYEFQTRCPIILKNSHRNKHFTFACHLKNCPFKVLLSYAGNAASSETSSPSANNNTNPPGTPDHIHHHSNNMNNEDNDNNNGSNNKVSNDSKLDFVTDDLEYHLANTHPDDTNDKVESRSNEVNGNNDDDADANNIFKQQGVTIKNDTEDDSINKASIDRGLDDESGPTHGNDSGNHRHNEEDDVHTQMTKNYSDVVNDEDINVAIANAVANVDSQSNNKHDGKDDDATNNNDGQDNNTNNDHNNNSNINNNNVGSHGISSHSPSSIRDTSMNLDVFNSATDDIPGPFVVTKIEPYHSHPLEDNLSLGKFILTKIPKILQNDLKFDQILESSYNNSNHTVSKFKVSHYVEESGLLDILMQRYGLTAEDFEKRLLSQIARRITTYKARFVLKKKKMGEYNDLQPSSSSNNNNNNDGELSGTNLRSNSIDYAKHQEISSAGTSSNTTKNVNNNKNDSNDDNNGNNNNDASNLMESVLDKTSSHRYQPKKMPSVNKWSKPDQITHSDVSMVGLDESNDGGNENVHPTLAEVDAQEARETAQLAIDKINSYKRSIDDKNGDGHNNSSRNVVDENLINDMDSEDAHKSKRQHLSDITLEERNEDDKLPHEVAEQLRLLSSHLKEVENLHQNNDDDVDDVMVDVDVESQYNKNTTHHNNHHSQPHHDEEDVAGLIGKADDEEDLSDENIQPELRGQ
Summary of the method: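 Full-length yeast transcription factors or their DNA-binding domains, GST-tagged and expressed with PURExpress, were applied at about 100-200 nM to universal all-10-mer Agilent arrays. These arrays had been made double-stranded by primer extension on fresh or once-stripped slides. Detection used fluorescent anti-GST, normalisation used masliner, and E-scores for ungapped eight-base words pooled with reverse complements came from the Universal PBM Analysis Suite.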

Sequence	PBM E-score
AGGCATTG	-0.101
CGAAGGCA	-0.148
ATGTTGGC	-0.0826
AAGTGACC	0.252
CCAACTTA	0.158
GAAGCTGC	0.0193
ATTTCAGG	0.0205
GCCATTGA	0.074
CTCTTGGC	-0.151
CGCGTCAC	0.111
CCTTTGAC	-0.13
AATGTGAG	0.0378
GTTTAAAA	0.209
ATGTCACA	0.282
TGATGGAA	-0.0572
AAGACTAA	-0.00454
ATCTCGCA	0.136
TCAGCCAA	-0.028
AGAATGCG	0.117
AGCAGCCG	-0.0296
GACCTTCA	0.142
ACAGCTCG	-0.142

Sequence	PBM E-score
CGACTGCC	-0.259
ATTAAACG	0.23
CTAGTAAA	0.0571
ACAGGCGA	-0.0629
ATCCCAAC	-0.0279
CAAAACTG	0.0851
AAAGTCGT	-0.0129
AAGCGGCT	-0.101
ACGAAAAC	0.316
CTGGCTTC	-0.141
CTATCGTC	0.252
ATCATAGA	0.204
TAGCGCTA	-0.0709
ATCGGTAC	0.0552
AAGGACGT	0.178
TATGGGGA	-0.00725
ACATGCCG	0.0733
ATCTTTTG	0.101
ACTACACG	0.163
AGTTCTTC	-0.0427
CGCTTCAA	0.162
CCTTTCGA	0.0566

Sequence	PBM E-score
GCGCTTTA	0.0924
ACGAGAGC	-0.0578
AGGGCTAA	0.083
ACTAGCTA	-0.225
TCGGACCA	-0.073
CTATGACC	0.017
AACTATCG	0.025
GCGAGATA	0.116
CACGGCTA	0.307
CTGGCCTA	-0.202
GAGCAACA	0.0205
GACTAGGA	-0.0405
AGTTACTA	0.148
CGATCAAG	-0.0178
ACTGGGAG	-0.146
GCGATAAA	0.241
CGGCGAGC	-0.0245
GCAAATTA	0.0305
CCACTGGC	-0.107
AACGCGCT	-0.0715
TGACGGAA	0.288
AGAGCCCT	-0.171

Sequence	PBM E-score
AGGCACTG	-0.0913
CGAAGACA	-0.003
CCTGCAAG	-0.342
TACTCTAA	-0.00515
AGGGGTCA	-0.181
CATTCGTA	0.308
ACATCATG	0.24
GCTGACAC	0.0512
AAGTTGCC	-0.0116
AAGGCTCA	-0.0222
ATGGCCCG	-0.202
AATAGTAA	0.192
CAGGCGAA	-0.0244
AGCGGGGG	-0.383
GACAGGGA	-0.07
CGAGTTAG	0.148
CCCGTAGG	0.0176
AAAGCGTT	-0.0287
ATAGCCGG	0.0178
CCTCCATA	0.0292
GGCACCCA	-0.152
CTACACAA	-0.0251

5 entries picked at random from those above, as already listed:
Sequence	PBM E-score
CAGGCGAA	-0.0244
AAGTTGCC	-0.0116
ATGGCCCG	-0.202
CGAGTTAG	0.148
AGGGGTCA	-0.181

Next part

Sequence	PBM E-score
CGCTCCCA	-0.124
CCTAACTA	0.0645
ATGGAAAC	-0.0866
CACTGGGG	-0.251
CAGACAAA	0.041
ATACCCGG	-0.139
GCATAACC	0.0527
CAAGAGTC	-0.142
ACATTCTG	-0.0819
GTTTGTAA	-0.052
CCCAGATC	-0.159
CACAATGC	-0.12
AACCGCCC	-0.201
GCGTCGTA	0.418
CCTGCAGA	-0.0442
AGCGGGAC	-0.131
GATTACGA	0.24
GCAGTGGA	0.00291
ACACTTAG	-0.0129
ATGAATCG	0.219
GAAAGCAC	0.141
